Results from PubChem BioAssay AID662 (National Center for Advancing Translational Sciences (NCATS), 2007).
Values joined by “and” are separate entries in the source; they are usually repeats but may differ in a detail not shown here. Equal entries are not always repeated. This is one part of the list. These are further read-outs of the screen, such as a control signal, another cell line or another target. No call is given for them. Most of these compounds were active or inconclusive in the main read-out, so they are no random draw. Potencies come from curve fits of mixed quality, noted in brackets.

assay: Cell signaling CRE-BLA (Fsk stim); conditions: CHO CRE-bla reporter (cAMP response element driving beta-lactamase), forskolin EC10, beta-lactamase ratio; measured here: 460 nm blue channel
In short: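 Beta-lactamase reporter under a cAMP responsive element in CHO cells; compounds tested in titration series against EC10 NKH 477, 3 h at 37 °C. Read-out: CCF4 FRET ratio 460nm/530nm (excitation 405nm) giving %Activity, fitted to AC50.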

Compound | AC50
COCCSc1nnc(NC(=O)Cc2cccs2)s1 | 0.1 µM [falling, partial curve, poor fit]
CCOC(=O)C1(C)NC(c2ccc(N(C)C)cc2)C2C(=O)N(CC)C(=O)C21 (configuration not stated) | 0.501 µM [falling, full curve, poor fit]
COc1ccccc1NC(=O)N1CCN(c2cc(-c3ccccc3)nc3ncnn23)CC1 | 0.126 µM [falling, full curve, poor fit]
COCCn1c(=O)c(-c2cn(C)c3ccccc23)nc2cncnc21 | 10 µM [rising, partial curve]
O=S(=O)(CCOc1ccccc1)c1nc2ccccc2[nH]1 | 6.31 µM [falling, partial curve]
O=C(Oc1cccc2ccccc12)c1ccco1 | 0.00316 µM [falling, full curve, poor fit]
O=C(O)CSc1sc(=S)sc1SCC(=O)O | 0.251 µM [falling, full curve]
Cc1cc2ccccc2n1CCNC(=O)C(C)(C)C | 10 µM [rising, partial curve]
O=C(c1csnn1)N1CCC2(CCCN(Cc3cc(C(F)(F)F)cc(C(F)(F)F)c3)C2)CC1 | 3.98 µM [rising, single point]
COc1cccc(-c2cc(C(=O)NCCc3ccccc3)no2)c1 | 0.0794 µM [falling, full curve, poor fit]
CCNC(=O)N1c2ccc(OCC)cc2C(C)=CC1(C)C | 25.1 µM [rising, single point]
COCCSc1nnc(NC(=O)CSCc2ccccc2)s1 | 15.8 µM [rising, single point]
Cc1ccc(C2NC(=O)c3ccccc3N2)s1 (configuration not stated) | 10 µM [rising, partial curve]
CCc1c(C#N)c(SCc2c(C)noc2C)nc2c1C(=O)CC(C)(C)C2 | 1 µM [rising, partial curve]
O=C(Cn1nc(C(F)(F)F)c2c1CCCC2)Nc1ccc2c(c1)OCO2 | 0.01 µM [falling, full curve, poor fit]
COc1ccc(-n2c(C)c(C(C)=O)c(C(C)=O)c2C)cc1OC | 10 µM [rising, partial curve]
CC(=O)Nc1nc(N2C(=O)c3ccccc3C2=O)n(-c2ccccc2)n1 | 0.501 µM [rising, partial curve, poor fit]
C=CCSC1=C(C#N)C(c2ccccc2OCC)CC(=O)N1 (configuration not stated) | 3.98 µM [falling, single point]
COc1ccc(NC(=O)CCN2CCCCC2)cc1 | 12.6 µM [falling, single point]
CCc1c(C)nc(SCCOc2ccc(OC)cc2)[nH]c1=O | 10 µM [rising, partial curve]
COC(=O)C1=CN(C2CC2)C=C(C(=O)OC)C1c1ccccc1OC | 12.6 µM [rising, partial curve]
COc1ccccc1-c1nccc(-n2ccnc2)n1 | 3.16 µM [rising, single point]
CNC(=O)CCn1nc(-c2ccc(Cl)cc2)c2ccccc2c1=O | 12.6 µM [rising, single point]

Look-ups from above.
AC50 with O=S(=O)(CCOc1ccccc1)c1nc2ccccc2[nH]1 reads 6.31 µM [falling, partial curve]
AC50 with CCNC(=O)N1c2ccc(OCC)cc2C(C)=CC1(C)C reads 25.1 µM [rising, single point]

(list continues)

Compound | AC50
COc1cccc(NC(=O)CN(c2cccc(C(F)(F)F)c2)S(C)(=O)=O)c1 | 0.00316 µM [falling, full curve]
COc1cc(-c2noc(-c3cccc(Cl)c3)n2)cc(OC)c1OC | 2.51 µM [rising, single point]
O=C1CCCc2c1cc(C(=O)Nc1ccc(Cl)cn1)c(=O)n2-c1ccccc1 | 10 µM [rising, single point]
Cc1ccc(CN2C(=O)CCC2C(=O)NCc2ccc(F)cc2)cc1 (configuration not stated) | 25.1 µM [rising, single point]
CCOCCOC(=O)COc1ccc(N2C(=O)c3ccccc3C2=O)cc1 | 0.501 µM [falling, full curve]
Cc1cc(-c2nnc3n2N=C(c2ccc(-c4ccccc4)cc2)CS3)n[nH]1 | 25.1 µM [falling, single point]
O=C(c1nn2c(C(F)(F)F)cc(-c3ccc(F)cc3)nc2c1Cl)N1CCOCC1 | 5.01 µM [rising, partial curve]
CS(=O)(=O)N1CCN(C(=O)c2csc3ccccc23)CC1 | 10 µM [rising, partial curve]
O=C(CN1CCOc2ccccc21)N1CCC(Cc2ccccc2)CC1 | 20 µM [falling, single point]
COc1ccc(Nc2nc(N)nc(C(F)(F)F)n2)c(OC)c1 | 10 µM [rising, single point]
N#CC(C(=O)NC1CCCCC1)c1nc2ccccc2nc1N1CCN(c2ccc(F)cc2)CC1 (configuration not stated) | 10 µM [rising, partial curve]
O=C(OCCOc1ccccc1Cl)c1ccc(-n2cnnn2)cc1 | 25.1 µM [falling, single point]
CCCOc1ccc2oc(=O)c3c(c2c1)CCCN3C(=O)CN1CCCC(C(=O)OCC)C1 (configuration not stated) | 7.94 µM [rising, partial curve]
CCN1C(=O)c2cccc3c(N)ccc1c23 | 12.6 µM [rising, partial curve]
CC(=O)NCCn1c(SCC(=O)c2ccccc2)nc2ccccc2c1=O | 10 µM [rising, partial curve]
CCC(C)OC(=O)c1[nH]c2c(c1C)C(=O)CC(c1ccc(N(C)C)cc1)C2 (configuration not stated) | 2.51 µM [rising, full curve, poor fit]
CC(C(=O)O)n1nc2ccccc2n1 (configuration not stated) | 5.01 µM [falling, single point]
C[C@H](Cc1ccc(O)c(O)c1)[C@@H](C)Cc1ccc(O)c(O)c1 | 10 µM [falling, partial curve] and 5.01 µM [falling, partial curve]
Cc1ccc(NS(=O)(=O)c2ccc(NC(=O)c3ccc(Br)o3)cc2)c(C)c1 | 0.00794 µM [falling, full curve, poor fit]
CCN1CC=C2C(C#N)=C(N)C(C#N)(C#N)C(c3cc(Cl)ccc3Cl)C2C1 (configuration not stated) | 5.01 µM [rising, full curve]
C=CCn1c(SCC(=O)Nc2sccc2C(N)=O)nc2sc(C)c(C)c2c1=O | 1.58 µM [rising, full curve]
Cc1nc(NC2CCCCC2)c2nc(-c3ccccc3)n(CCN3CCCCC3)c2n1 | 12.6 µM [rising, partial curve]
N#Cc1nc(-c2ccco2)oc1N1CCN(c2ccccc2)CC1 | 10 µM [rising, single point]

Compound | AC50
CCCOc1nc2c(c(=O)n(C)c(=O)n2C)n1Cc1cccc2ccccc12 | 15.8 µM [rising, single point]
CCCC(C)C(=O)Nc1ccc(C(N)=O)cc1 (configuration not stated) | 10 µM [falling, partial curve, poor fit]
CCC(=O)Oc1ccc(C/C(=N\O)c2ccc(O)cc2O)o1 | 3.16 µM [falling, full curve]
Cn1c(SCC(=O)c2ccccc2)nnc1C1CC1 | 0.2 µM [falling, full curve]
COCCCNC(=O)CCc1nc(-c2ccccc2)no1 | 3.16 µM [falling, single point]
COC(=O)[C@@]1(Cc2ccc(OC)cc2)[C@H]2c3cc(C(=O)N4CCCC4)n(CCc4ccccn4)c3C[C@H]2CN1C(=O)c1ccccc1 | 0.126 µM [rising, full curve, poor fit]
COc1ccccc1N1CCN(C(=O)c2cc3c(-c4ccc(Cl)cc4)nn(C)c3s2)CC1 | 25.1 µM [falling, single point]
CC(=O)NCCNc1ncnc2ccc(-c3c(C)noc3C)cc12 | 5.01 µM [rising, full curve]
CCc1nnc(SCC(=O)N2CCCc3ccccc32)nc1CC | 0.00398 µM [falling, full curve, poor fit]
CCn1c(SCC(=O)N(Cc2ccccc2)C2CCS(=O)(=O)C2)nc2ccccc2c1=O (configuration not stated) | 15.8 µM [rising, single point]
Cc1csc(N(C)C(=O)CSc2nnc(COc3ccccc3C)o2)n1 | 0.00398 µM [falling, full curve, poor fit]
Cc1ccc2c(c1)[nH]c1c(=O)n(Cc3ccccn3)cnc12 | 12.6 µM [rising, single point]
CCN(CC)CCOc1nc(C)nc2c1oc1ccccc12 | 25.1 µM [rising, single point]
COc1cc(C(=O)Nc2ccc(S(=O)(=O)N3CCCCC3C)cc2)cc(OC)c1OC (configuration not stated) | 10 µM [rising, partial curve]
COc1cccc(-c2nnc(SCC(=O)Nc3ccc4c(c3)OCCO4)n2Cc2ccco2)c1 | 3.16 µM [rising, full curve, poor fit]
O=C(c1ccccc1)c1ccc(Oc2ncccn2)cc1 | 2 µM [falling, single point]
CCn1cc(C(=O)OCc2ccccc2)c(=O)c2ccc(C)nc21 | 10 µM [rising, partial curve]
O=C(OCCN1C(=O)c2ccccc2C1=O)c1cc(S(=O)(=O)N2CCOCC2)ccc1Cl | 6.31 µM [rising, partial curve]
COc1cccc(Cn2c(=O)c(-c3cccc(C#N)c3)nc3cnc(N4CCN(C)CC4)nc32)c1 | 5.01 µM [rising, partial curve]
COc1ccc2c(c1OC)C(=O)N(c1ccccn1)C2 | 25.1 µM [rising, single point]
Cn1cccc1Cc1nnc(SCC(=O)Nc2ccc(Cl)cc2)n1-c1ccc(F)cc1 | 12.6 µM [falling, partial curve]

Reformatted: 3 of the compounds above
Compound,AC50
COc1ccccc1NC(=O)N1CCN(c2cc(-c3ccccc3)nc3ncnn23)CC1,"0.126 µM [falling, full curve, poor fit]"
COCCn1c(=O)c(-c2cn(C)c3ccccc23)nc2cncnc21,"10 µM [rising, partial curve]"
O=S(=O)(CCOc1ccccc1)c1nc2ccccc2[nH]1,"6.31 µM [falling, partial curve]"
